Where cells or extracts were used, other partners may take part. For some assays here: Negatives hold for the conditions tested. For some assays here: For at least one entry, the source does not settle the construct or the ends of the probe.
Experiments:
[1] = target: EpCAM (UniProt P16422); experiment: flow cytometry; details: 3' inverted dT, protein on the cell surface, label: 5' TYE665, single-stranded DNA; for Kd: 37 C
[2] = target: Transferrin receptor (TfR) (Mus musculus) (UniProt Q62351); experiment: flow cytometry; details: 3' inverted dT; bEnd.3 cells; internalised; protein on the cell surface; label: 5' TYE665; single-stranded DNA; variant of TfR1
[3] = HEY cells, protein details: native EpCAM on HT29 or HEY cells
[4] = HT29 cells, no binding to EpCAM-negative HEK293T and K562, protein details: native EpCAM on HT29 or HEY …

By UniProt entry, the sequences of proteins in these tests, tags left out. Residues count along the entry.
UniProt P16422, 24-314: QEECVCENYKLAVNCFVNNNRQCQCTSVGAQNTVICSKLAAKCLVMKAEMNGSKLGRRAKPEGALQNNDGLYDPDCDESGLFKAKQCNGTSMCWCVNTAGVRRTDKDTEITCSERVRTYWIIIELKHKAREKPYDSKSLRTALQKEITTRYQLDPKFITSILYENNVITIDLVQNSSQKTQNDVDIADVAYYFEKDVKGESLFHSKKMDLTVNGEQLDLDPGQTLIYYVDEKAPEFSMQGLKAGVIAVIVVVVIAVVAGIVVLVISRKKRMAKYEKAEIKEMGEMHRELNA
UniProt Q62351, whole entry: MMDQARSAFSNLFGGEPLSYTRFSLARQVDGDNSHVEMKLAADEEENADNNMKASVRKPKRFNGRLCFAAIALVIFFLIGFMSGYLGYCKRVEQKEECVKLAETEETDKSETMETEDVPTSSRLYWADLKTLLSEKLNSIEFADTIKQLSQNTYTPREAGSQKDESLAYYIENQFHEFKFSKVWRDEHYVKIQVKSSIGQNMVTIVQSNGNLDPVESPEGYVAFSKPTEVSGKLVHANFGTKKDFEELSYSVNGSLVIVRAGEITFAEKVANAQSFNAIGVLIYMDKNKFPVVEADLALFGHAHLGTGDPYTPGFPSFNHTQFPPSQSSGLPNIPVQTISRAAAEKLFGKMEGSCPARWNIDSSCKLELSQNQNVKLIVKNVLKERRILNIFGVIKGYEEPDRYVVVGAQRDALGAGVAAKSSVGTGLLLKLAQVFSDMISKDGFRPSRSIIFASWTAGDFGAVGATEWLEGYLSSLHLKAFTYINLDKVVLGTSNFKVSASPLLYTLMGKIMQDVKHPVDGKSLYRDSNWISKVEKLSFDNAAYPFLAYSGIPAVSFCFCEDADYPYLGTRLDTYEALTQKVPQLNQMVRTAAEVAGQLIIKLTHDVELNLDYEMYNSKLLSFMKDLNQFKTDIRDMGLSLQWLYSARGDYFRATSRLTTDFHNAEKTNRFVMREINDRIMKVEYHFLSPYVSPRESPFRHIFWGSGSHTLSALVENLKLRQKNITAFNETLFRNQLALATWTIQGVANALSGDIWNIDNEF

| Sequence | Kd [1, 3] [nM] | Kd [1, 4] [nM] | further results |
| --- | --- | --- | --- |
| GCGTGGTACCACGC [TfR3] |  |  | binding result ([1]; HEY cells, non-specific binding only, not internalised, protein details: native EpCAM on HT29 or HEY cells, variant of TfR1): no binding |
| CACTACAGAGGTTGCGTCTGTCCCACGTTGTCATGGGGGGTTGGCCTG [EpCAM full length aptamer (SYL3C, 48-mer)] | 495 |  | Kd ([1]; HT29 cells, protein details: native EpCAM on HT29 or HEY cells): 9 nM |
| CCCACGTTGTCATGGG [Ep8] | 696 | 6.19 |  |
| GCGTGGTCACACGC [TfR4] |  |  | binding result [2]: binds |
| ACAGAGGTTGCGTCTGT [Ep7] | 248 | 11 |  |
